{"source": "the supplement of paper PMC8728848", "binders": {"B1": {"name": "AFL6 (Aspergillus fumigatus), Q4WKJ1 (protein)", "chain": "MSFHLTAEDIRIEDGHRLVARLRNADGDLQDASIDLNTCLGNDNGHFQWDGVDFSHSAQDVHFAIEGGGQVPVLRAQLANQDGEFQDADVNLSERIENINGEFVFH"}}, "assay_in_all_cases": "glycan array binding signal (z-score within array); higher = stronger binding", "settings_in_all_cases": "glycan notation: IUPAC condensed, linker removed", "key": {"Fuc(a1-2)Gal": {"target": "Fuc(a1-2)Gal", "in_short": "(§1)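 The binding signal is a Z-score computed within each array. Data were drawn from 3228 arrays in the Consortium for Functional Glycomics database, restricted to those with a known protein sequence. Scores were averaged over arrays of the same protein sequence at different concentrations or buffers, and over linkers, and negative values can be taken as non-binding.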"}, "Fuc(a1-2)Gal(b1-3)GalNAc": {"target": "Fuc(a1-2)Gal(b1-3)GalNAc", "in_short": "as §1"}, "[1]": {"target": "Fuc(a1-2)Gal(b1-3)GalNAc(a1-3)[Fuc(a1-2)]Gal(b1-4)Glc", "in_short": "as §1"}, "[2]": {"target": "Fuc(a1-2)Gal(b1-3)GalNAc(a1-3)[Fuc(a1-2)]Gal(b1-4)GlcNAc", "in_short": "as §1"}, "[3]": {"target": "Fuc(a1-2)Gal(b1-3)GalNAc(b1-3)Gal", "in_short": "as §1"}, "[4]": {"target": "Fuc(a1-2)Gal(b1-3)GalNAc(b1-3)Gal(a1-4)Gal(b1-4)Glc", "in_short": "as §1"}, "[5]": {"target": "Fuc(a1-2)Gal(b1-3)GalNAc(b1-4)[Neu5Ac(a2-3)]Gal(b1-4)Glc", "in_short": "as §1"}, "Fuc(a1-2)Gal(b1-3)GlcNAc": {"target": "Fuc(a1-2)Gal(b1-3)GlcNAc", "in_short": "as §1"}, "[6]": {"target": "Fuc(a1-2)Gal(b1-3)GlcNAc(b1-2)Man(a1-3)[Fuc(a1-2)Gal(b1-3)GlcNAc(b1-2)Man(a1-6)]Man(b1-4)GlcNAc(b1-4)GlcNAc", "in_short": "as §1"}, "[7]": {"target": "Fuc(a1-2)Gal(b1-3)GlcNAc(b1-2)Man(a1-3)[Fuc(a1-2)Gal(b1-3)GlcNAc(b1-2)Man(a1-6)]Man(b1-4)GlcNAc(b1-4)[Fuc(a1-6)]GlcNAc", "in_short": "as §1"}, "[8]": {"target": "Fuc(a1-2)Gal(b1-3)GlcNAc(b1-3)Gal(b1-4)Glc", "in_short": "as §1"}, "[9]": {"target": "Fuc(a1-2)Gal(b1-3)GlcNAc(b1-3)GalNAc", "in_short": "as §1"}, "[10]": {"target": "Fuc(a1-2)Gal(b1-3)GlcNAc(b1-3)[Fuc(a1-2)Gal(b1-3)GlcNAc(b1-6)]GalNAc", "in_short": "as §1"}, "[11]": {"target": "Fuc(a1-2)Gal(b1-3)GlcNAc(b1-3)[Gal(b1-4)GlcNAc(b1-6)]Gal(b1-4)Glc", "in_short": "as §1"}, "[12]": {"target": "Fuc(a1-2)Gal(b1-3)GlcNAc(b1-3)[Neu5Ac(a2-6)Gal(b1-4)GlcNAc(b1-6)]Gal(b1-4)Glc", "in_short": "as §1"}, "[13]": {"target": "Fuc(a1-2)Gal(b1-3)GlcNAc6S", "in_short": "as §1"}, "[14]": {"target": "Fuc(a1-2)Gal(b1-3)[Fuc(a1-4)]GlcNAc", "in_short": "as §1"}, "[15]": {"target": "Fuc(a1-2)Gal(b1-3)[Fuc(a1-4)]GlcNAc(b1-2)Man(a1-3)[Fuc(a1-2)Gal(b1-3)[Fuc(a1-4)]GlcNAc(b1-2)Man(a1-3)]Man(b1-4)GlcNAc(b1-4)GlcNAc", "in_short": "as §1"}, "[16]": {"target": "Fuc(a1-2)Gal(b1-3)[Fuc(a1-4)]GlcNAc(b1-2)Man(a1-3)[Fuc(a1-2)Gal(b1-3)[Fuc(a1-4)]GlcNAc(b1-2)Man(a1-6)]Man(b1-4)GlcNAc(b1-4)[Fuc(a1-6)]GlcNAc(b1-4)[Fuc(a1-6)]GlcNAc", "in_short": "as §1"}, "[17]": {"target": "Fuc(a1-2)Gal(b1-3)[Fuc(a1-4)]GlcNAc(b1-3)[Fuc(a1-3)[Gal(b1-4)]GlcNAc(b1-6)]Gal(b1-4)Glc", "in_short": "as §1"}, "[18]": {"target": "Fuc(a1-2)Gal(b1-3)[Fuc(a1-4)]GlcNAc(b1-3)[Gal(b1-4)GlcNAc(b1-6)]Gal(b1-4)Glc", "in_short": "as §1"}, "[19]": {"target": "Fuc(a1-2)Gal(b1-4)Fuc(a1-3)]GlcNAc(b1-2)Man(a1-3)[Fuc(a1-2)Gal(b1-4)[Fuc(a1-3)]GlcNAc(b1-2)Man(a1-6)]Man(b1-4)GlcNAc(b1-4)GlcNAc", "in_short": "as §1"}}, "note": "Some of the results follow.", "data": [{"binder": "B1", "values": [{"measurement": "glycan array binding signal (z-score)", "setting": "Fuc(a1-2)Gal", "value": -0.499}, {"measurement": "glycan array binding signal (z-score)", "setting": "Fuc(a1-2)Gal(b1-3)GalNAc", "value": -0.354}, {"measurement": "glycan array binding signal (z-score)", "setting": "[1]", "value": -0.421}, {"measurement": "glycan array binding signal (z-score)", "setting": "[2]", "value": 0.068}, {"measurement": "glycan array binding signal (z-score)", "setting": "[3]", "value": 0.034}, {"measurement": "glycan array binding signal (z-score)", "setting": "[4]", "value": -0.515}, {"measurement": "glycan array binding signal (z-score)", "setting": "[5]", "value": 0.764}, {"measurement": "glycan array binding signal (z-score)", "setting": "Fuc(a1-2)Gal(b1-3)GlcNAc", "value": -0.167}, {"measurement": "glycan array binding signal (z-score)", "setting": "[6]", "value": 2.45}, {"measurement": "glycan array binding signal (z-score)", "setting": "[7]", "value": 0.456}, {"measurement": "glycan array binding signal (z-score)", "setting": "[8]", "value": -0.196}, {"measurement": "glycan array binding signal (z-score)", "setting": "[9]", "value": -0.615}, {"measurement": "glycan array binding signal (z-score)", "setting": "[10]", "value": 0.086}, {"measurement": "glycan array binding signal (z-score)", "setting": "[11]", "value": 0.033}, {"measurement": "glycan array binding signal (z-score)", "setting": "[12]", "value": -0.619}, {"measurement": "glycan array binding signal (z-score)", "setting": "[13]", "value": -0.598}, {"measurement": "glycan array binding signal (z-score)", "setting": "[14]", "value": -0.258}, {"measurement": "glycan array binding signal (z-score)", "setting": "[15]", "value": 1.02}, {"measurement": "glycan array binding signal (z-score)", "setting": "[16]", "value": 0.059}, {"measurement": "glycan array binding signal (z-score)", "setting": "[17]", "value": -0.86}, {"measurement": "glycan array binding signal (z-score)", "setting": "[18]", "value": -0.672}, {"measurement": "glycan array binding signal (z-score)", "setting": "[19]", "value": 1.9}]}]}
